Inconclusive means that the source gave no clear call. Such entries were picked first, then a sample of the others. Potencies beside an inconclusive call are fits to weak or partial responses and may not hold up. The source made the active and inactive calls. Calls follow the shape of the dose curve; as a rule, active = well fitted inhibition curve with a large enough effect; inconclusive = small, poorly fitted or top-dose-only effect; inactive = no such curve, though single readings can be large or run the other way.
Experiment: qHTS Assay for Inhibitors of MBNL1-poly(CUG) RNA binding: Counterscreen HTRF assay
Conditions: His-Menin/biotin-MLL peptide TR-FRET counterscreen; series mostly up to 57.6 µM; activity, negative = inhibition: at the top concentration
Text: NIH Chemical Genomics Center [NCGC] NIH Molecular Libraries Probe Production Centers Network [MLPCN] MLPCN Grant: R03 MH087421-01 Assay Submitter (PI): Charles Thornton NCGC Assay Overview: Expanded CTG repeats in the 3' untranslated region of the DM protein kinase (DMPK) gene causes type I myotonic dystrophy (DM1). DM1 is a multi-systemic disease with a prevalence of 1/7000. Clinical features include myotonia, progressive muscle weakness and wasting, cardiac arrhythmia, insulin resistance, hypersomnolence, cataracts, and other symptoms. The pathogenic effect of expanded CTG repeats stems from deleterious effects of the mutant transcript. CUGexp mRNA accumulates in nuclear foci and sequesters proteins of the muscleblind family, of which MBNL1 is the most common family member in skeletal muscles. The binding interaction between MBNL1 and CUGexp tracts leads to deregulation of alternative splicing and is therefore a key molecular step in the pathogenesis of DM1. To target this binding interaction, we optimized a protein-RNA binding assay in 1536-well format for identification of small molecule inhibitors of biotinylated (CUG)12 and his-tagged MBNL1 binding. Protein-RNA complex of MBNL1-His and Biotin-(CUG)12 captures the detection reagents terbium-labeled anti-His antibody and streptavidin conjugated XL665. This brings the terbium label within close proximity to XL665 to allow time-resolved fluorescence resonance energy transfer (TR-FRET). Inhibitors of MBNL1-(CUG)12 binding will disrupt TR-FRET. As a counterscreen, to identify which compounds might be specific disruptors, the present assay uses the same screening platform to interrogate disruption of a different protein-peptide interaction.
This assay uses a ratiometric measurement of TR-FRET binding assay with His-Menin and Biotin-MLL peptide. In the presence of Menin-MLL complex, the excitation energy is transferred to the XL665 acceptor label, causing emission at 665nm, while the 545nm donor signal remains the same. Data were normalized to the controls for basal activity (buffer only) and 100% activity (with Menin-MLL). The IC50 values were determined from concentration-response data modeled with the standard Hill equation Assay buffer: 50mM Tris pH 7.5, 50mM NaCl, 1mM DTT, 0.1% BSA, 0.05% Tween 20 1536-well assay protocol for the MBNL1-(CUG)12 binding assay: (1) Add 2 ul/well 20nM His-Menin, 20nM Biotin-MLL (2) Add 23 nL compounds in DMSO solution. The final titration was 92 nM to 58 uM. (3) Add 1 ul of 0.22 ng/ul terbium labeled anti-His antibody (0.055 ng/ul final concentration) (4) Add 1 ul of 20 nM streptavidin-XL665 (5 nM final concentration) (5) Incubate 60 min at room temperature (6) Detect the assay plate in a EnVision plate reader (PerkinElmer) with Ex=340 nm, Em1=665 nm and Em2=545 nm.

Row | Compound | Potency | activity, negative = inhibition
1 | Cc1ccc(S(=O)(=O)Oc2ccccc2/C=N/N=C(N)N)cc1 | inconclusive: 103 µM [inhibitor, single point] | 
2 | COc1ccc(-c2nc(SCC(=O)Nc3cc(C)on3)n[nH]2)cc1 | inconclusive: 51.7 µM [inhibitor, partial curve] | 
3 | O=C(OC[C@H]1O[C@@H](OC(=O)c2cc(O)c(O)c(OC(=O)c3cc(O)c(O)c(O)c3)c2)[C@H](OC(=O)c2cc(O)c(O)c(OC(=O)c3cc(O)c(O)c(O)c3)c2)[C@@H](OC(=O)c2cc(O)c(O)c(OC(=O)c3cc(O)c(O)c(O)c3)c2)[C@@H]1OC(=O)c1cc(O)c(O)c(OC(=O)c2cc(O)c(O)c(O)c2)c1)c1cc(O)c(O)c(OC(=O)c2cc(O)c(O)c(O)c2)c1 | active: 36.6 µM | 
4 | CCOC(=O)CCCCC(=O)c1[nH]c(=O)[nH]c1Cn1ccnc1 |  | inactive: -2.66%
5 | CCOC(=O)C1(CCOc2ccccc2)CCN(Cc2ccc(-n3cccn3)cc2)CC1 |  | inactive: -46.3%
6 | CC(=O)Nc1nc(-c2ccc(Cl)cc2)nc(C)c1C(C)=O | inconclusive: 20.6 µM [inhibitor, partial curve] | 
7 | O=C(CSc1n[nH]c(-c2ccncc2)n1)NC1CCS(=O)(=O)C1 (stereo not given) | inconclusive: 65.1 µM [inhibitor, partial curve] | 
8 | NC(=NCc1ccc2c(c1)OCO2)NC(=O)c1ccccc1 |  | inactive: 4.49%
9 | NC[C@H](O)c1ccc(O)c(O)c1 | inconclusive: 11.6 µM [inhibitor, full curve] | 
10 | CNC[C@H](O)c1ccc(O)c(O)c1 |  | inactive: 4.46%
11 | COc1ccc(NC(=O)NC(C(F)(F)F)C(F)(F)F)cc1 | inconclusive: 65.1 µM [inhibitor, partial curve] | 
12 | OC(COc1ccccc1CNCc1cccnc1)CN1CCc2ccccc2C1 (stereo not given) | inconclusive: 65.1 µM [inhibitor, single point] | 
13 | O=C(CCO)c1ccc(O)cc1 |  | inactive: -0.266%
14 | CC(C)N1CCC2(CC1)C(C#N)=C(N)NC(S)=C2C#N | active: 18.3 µM | 
15 | COc1cccc(NC(=O)Cn2cnc3sc(C)c(S(=O)(=O)N4CCN(C)CC4)c3c2=O)c1 | inconclusive: 81.9 µM [inhibitor, partial curve] | 
16 | COc1ccc(CC(=O)Oc2ccc(C)cc2Br)cc1OC | active: 16.3 µM | 
17 | COc1ccc(NC(=O)Nn2cnnc2)cc1OC | inconclusive: 41.1 µM [inhibitor, partial curve] | 
18 | O=C1Cc2ccccc2C(=O)N1Cc1ccccc1 |  | inactive: 2.92%
19 | COc1ccc(CCNC(=O)C2CC(=O)N(c3ccccc3)C2)cc1OC (stereo not given) |  | inactive: 1.26%
20 | CCOC(=O)CCCCC(=O)c1[nH]c(=O)[nH]c1C[n+]1ccccc1 | inconclusive: 51.7 µM [inhibitor, partial curve] | 

Record cards (already shown):
OC(COc1ccccc1CNCc1cccnc1)CN1CCc2ccccc2C1 (stereo not given) as listed: Potency: inconclusive: 65.1 µM [inhibitor, single point]
O=C(CSc1n[nH]c(-c2ccncc2)n1)NC1CCS(=O)(=O)C1 (stereo not given) as listed: Potency: inconclusive: 65.1 µM [inhibitor, partial curve]

(more compounds)

Row | Compound | Potency | activity, negative = inhibition
21 | O=C(Nc1ccc(Br)cc1)Nn1cnnc1 | inconclusive: 51.7 µM [inhibitor, partial curve] | 
22 | O=C1N(c2ccc(Cl)c(Cl)c2)CN(Cc2ccccc2)CN1n1cnnc1 | inconclusive: 51.7 µM [inhibitor, partial curve] | 
23 | CC(=O)c1cccc(NC(=O)Nc2cccnc2)c1 | inconclusive: 65.1 µM [inhibitor, single point] | 
24 | Cn1nccc1NC(=O)Nc1cccc(Cl)c1 | active: 32.6 µM | 
25 | COc1ccc(/C=N/Nc2nccnc2Cl)cc1 |  | inactive: 18.4%
26 | O=C(Nc1ccc(Cl)c(Cl)c1)Nn1cnnc1 | active: 32.6 µM | 
27 | COc1ccc(CN2CCN(c3cccc(C)c3C)CC2)cc1OC | inconclusive: 81.9 µM [inhibitor, single point] | 
28 | Cc1ccc(NC(=O)Nn2cnnc2)cc1Cl | inconclusive: 41.1 µM [inhibitor, partial curve] | 
29 | Cn1nccc1NC(=O)Nc1ccc(Cl)cc1 | inconclusive: 65.1 µM [inhibitor, partial curve] | 
30 | COC(=O)c1ccc(=O)c2nc3/c(=C/O)c(O)cc(=O)c3[nH]c12 |  | inactive: 5.22%
31 | O=C(NC1CCCCC1)c1ccccc1NC(=O)C1CC(=O)N(c2ccccc2)C1 (stereo not given) |  | inactive: 1.73%
32 | O=C1c2c(O)ccc(O)c2C(=O)c2c(NCCNCCO)ccc(NCCNCCO)c21 |  | inactive: -5.65% [at 19.2 µM]
33 | Nc1ccc2c(c1)C(=O)C(=O)c1ccccc1-2 |  | inactive: 86.9%
34 | OC1(c2ccc(Cl)cc2)CCN(Cc2cn[nH]c2-c2ccccc2)CC1 |  | inactive: -12.3%
35 | Cc1cc(N)c2cc(NC(=O)Nc3ccc4nc(C)cc(N)c4c3)ccc2n1 | active: 20.6 µM | 
36 | CCCNC(=O)Nc1cc(OC)c(OC)cc1Cc1nccc2cc(OC)c(OC)cc12 | inconclusive: 81.9 µM [inhibitor, partial curve] | 
37 | O=C(Nc1ccc(F)c(Cl)c1)Nn1cnnc1 | inconclusive: 51.7 µM [inhibitor, partial curve] | 
38 | CC(=O)Nc1ccc(NC(=O)c2cc(-c3cc(C)c(C)cc3O)n[nH]2)cc1 |  | inactive: -1.98%
39 | COc1ccc(-c2nc3ccncc3[nH]2)cc1OC | active: 18.3 µM | 
40 | CCCCN1C(=O)NC2NC(=O)NC21 (stereo not given) | inconclusive: 41.1 µM [inhibitor, partial curve] | 

From PubChem BioAssay AID651843 (National Center for Advancing Translational Sciences (NCATS), 2012)
